Measured values taken from PubChem BioAssay AID248 (DTP/NCI, 2004).
The list is a part of this screen's results and no random one: it gathers tests that were run many times, whatever their T/C, doses with no T/C, and many T/C values between a quarter and a half above the control. Other doses and runs of a compound stand elsewhere. T/C: endpoint of the treated group in % of that of the vehicle group. Some entries give survivors of the animals treated and no T/C: the source holds a T/C of zero for them, seemingly a mark for toxic or unscored doses. Some survivor counts are full or nearly so, which does not show that the dose was tolerated: the source hardly ever lists a survival T/C far under the control, and the zero likely stands for such cases as well. Counts of survivors are from the toxicity check (mostly the fifth day) where no day follows; animals may have died later. Schedule codes are those of the source, read here as Q, the interval in days (D) or hours (H), X, the number of doses. Some schedules carry Z or #; the key to these is not given. Some structures stand for samples that the source files as different forms (salt, stereo form or complex); doses refer to the form tested. Marks such as (2×) count equal records among those shown. Some doses were run more than once; the values are given in rising order. For survival time, the PubChem record calls one and a half times the control and up active, and a quarter to a half above the control has no call in these data; cut-offs in other NCI protocols can differ.

System: L1210 leukemia ip in BDF1 mice, survival T/C
Assay: NCI In Vivo Anticancer Drug Screen. Data for tumor model L1210 Leukemia (intraperitoneal) in B6D2F1 (BDF1) mice
Details: higher T/C = longer survival
[1] = T/C endpoint: mean survival time, dose: 100.0 mg/kg/injection, schedule: Q01DX009 (ip), vehicle: Klucel (hydroxypropylcellulose) (HPC)
[2] = T/C endpoint: mean survival time, dose: 200.0 mg/kg/injection, schedule: Q01DX009 (ip), vehicle: Klucel (hydroxypropylcellulose) (HPC)
[3] = T/C endpoint: mean survival time, dose: 400.0 mg/kg/injection, schedule: Q01DX009 (ip), vehicle: Klucel (hydroxypropylcellulose) (HPC)
[4] = T/C endpoint: mean survival time, dose: 100.0 mg/kg/injection, schedule: Q04DX003 (ip), vehicle: saline with Tween-80
[5] = T/C endpoint: mean survival time, dose: 200.0 mg/kg/injection, schedule: Q04DX003 (ip), vehicle: saline with Tween-80
[6] = T/C endpoint: mean survival time, dose: 400.0 mg/kg/injection, schedule: Q04DX003 (ip), vehicle: saline with Tween-80

CC(=O)OC1(C)CC(C)C(=O)C(C(O)CC2CC(=O)NC(=O)C2)C1 (configuration not stated)
T/C (T/C endpoint: mean survival time, dose: 0.13 mg/kg/injection, schedule: Q01DX009 (ip), vehicle: water): 125 % of control
T/C (T/C endpoint: mean survival time, dose: 0.25 mg/kg/injection, schedule: Q01DX009 (ip), vehicle: water): 135 % of control
survivor count (T/C endpoint: mean survival time, dose: 0.3 mg/kg/injection, schedule: Q01DX009 (ip), vehicle: saline with Tween-80): 8 of 10
T/C (T/C endpoint: mean survival time, dose: 0.4 mg/kg/injection, schedule: Q01DX009 (ip), vehicle: saline with Tween-80): 129 % of control
survivor count (T/C endpoint: mean survival time, dose: 0.6 mg/kg/injection, schedule: Q01DX009 (ip), vehicle: saline with Tween-80): 5 of 10
T/C (T/C endpoint: mean survival time, dose: 0.6 mg/kg/injection, schedule: Q01DX009 (ip), vehicle: saline): 131 % of control
survivor count (T/C endpoint: mean survival time, dose: 1.0 mg/kg/injection, schedule: Q01DX009 (ip), vehicle: saline): 5 of 6
survivor count (T/C endpoint: mean survival time, dose: 1.2 mg/kg/injection, schedule: Q01DX009 (ip), vehicle: saline with Tween-80): 0 of 10
survivor count (T/C endpoint: mean survival time, dose: 2.0 mg/kg/injection, schedule: Q01DX009 (ip), vehicle: water): 1 of 6
survivor count (T/C endpoint: mean survival time, dose: 8.0 mg/kg/injection, schedule: Q04DX003 (ip), vehicle: saline): 5 of 10
survivor count (T/C endpoint: mean survival time, dose: 8.0 mg/kg/injection, schedule: Q04DX003 (ip), vehicle: water): 2 of 6
survivor count (T/C endpoint: mean survival time, dose: 16.0 mg/kg/injection, schedule: Q01DX001 (ip), vehicle: saline): 4 of 10
survivor count (T/C endpoint: mean survival time, dose: 16.0 mg/kg/injection, schedule: Q08DX002 (ip), vehicle: saline): 6 of 10
survivor count (T/C endpoint: mean survival time, dose: 125.0 micrograms/kg/injection, schedule: Q03HX024 (ip), vehicle: saline): 9 of 10
survivor count (T/C endpoint: mean survival time, dose: 250.0 micrograms/kg/injection, schedule: Q03HX016 (ip), vehicle: saline): 6 of 10
survivor count (T/C endpoint: mean survival time, dose: 250.0 micrograms/kg/injection, schedule: Q03HX024 (ip), vehicle: saline): 10 of 10
survivor count (T/C endpoint: mean survival time, dose: 500.0 micrograms/kg/injection, schedule: Q01DX009 (ip), vehicle: saline): 8 of 10
survivor count (T/C endpoint: mean survival time, dose: 500.0 micrograms/kg/injection, schedule: Q03HX008 (ip), vehicle: saline): 0 of 10
survivor count (T/C endpoint: mean survival time, dose: 500.0 micrograms/kg/injection, schedule: Q03HX016 (ip), vehicle: saline): 2 of 10
survivor count (T/C endpoint: mean survival time, dose: 500.0 micrograms/kg/injection, schedule: Q03HX024 (ip), vehicle: saline): 0 of 10
survivor count (T/C endpoint: mean survival time, dose: 1000.0 micrograms/kg/injection, schedule: Q01DX009 (ip), vehicle: saline): 6 of 10
survivor count (T/C endpoint: mean survival time, dose: 1000.0 micrograms/kg/injection, schedule: Q03HX008 (ip), vehicle: saline): 0 of 10
survivor count (T/C endpoint: mean survival time, dose: 1000.0 micrograms/kg/injection, schedule: Q03HX016 (ip), vehicle: saline): 0 of 10
survivor count (T/C endpoint: mean survival time, dose: 1000.0 micrograms/kg/injection, schedule: Q03HX024 (ip), vehicle: saline): 0 of 10
survivor count (T/C endpoint: mean survival time, dose: 2000.0 micrograms/kg/injection, schedule: Q01DX009 (ip), vehicle: saline): 10 of 10
survivor count (T/C endpoint: mean survival time, dose: 2000.0 micrograms/kg/injection, schedule: Q03HX008 (ip), vehicle: saline): 0 of 10
survivor count (T/C endpoint: mean survival time, dose: 2000.0 micrograms/kg/injection, schedule: Q03HX016 (ip), vehicle: saline): 0 of 10
survivor count (T/C endpoint: median survival time, dose: 16.0 mg/kg/injection, schedule: Q04DX003 (ip), vehicle: saline): 5 of 8

CN(C)CCCC1(c2ccccc2)SC(C)(C)c2ccc(Cl)cc21 (configuration not stated)
survivor count [1]: 1 of 6
survivor count [2]: 0 of 6
survivor count [3]: 0 of 6

O=C(C(=O)c1ccc(Cl)cc1)c1ccc(Cl)cc1
survivor count (T/C endpoint: mean survival time, dose: 12.5 mg/kg/injection, schedule: Q01DX009 (ip), vehicle: other): 6 of 6

O=C(Nc1ccccn1)c1cc(N2CCOCC2)ccn1
survivor count (T/C endpoint: mean survival time, dose: 200.0 mg/kg/injection, schedule: Q01DX001 (ip), vehicle: saline): 3 of 6
survivor count (T/C endpoint: mean survival time, dose: 400.0 mg/kg/injection, schedule: Q01DX001 (ip), vehicle: saline): 3 of 6

Cc1cc(CC(Cl)(C(F)(F)F)C(F)(F)F)cc(CC(Cl)(C(F)(F)F)C(F)(F)F)n1
survivor count (T/C endpoint: mean survival time, dose: 50.0 mg/kg/injection, schedule: Q01DX009 (ip), vehicle: saline with Tween-80): 1 of 6

COc1ccc(CC2C(=O)NC(C)C(=O)N(C)C3C(=O)N(C)C(Cc4ccc(O)c(c4)Oc4ccc(cc4)C3O)C(=O)NC(C)C(=O)NC(C)C(=O)N2C)cc1 (configuration not stated) (tested in a mixture with another compound)
survivor count (T/C endpoint: mean survival time, dose: 4.0 mg/kg/injection, schedule: Q01DX009 (ip), vehicle: carboxymethylcellulose (CMC)): 1 of 6

COC(=O)c1ccc[n+](C)c1
survivor count (T/C endpoint: mean survival time, dose: 400.0 mg/kg/injection, schedule: Q04DX002 (ip), vehicle: saline): 1 of 3

CCCCCC[P+](=O)CCCCCC
survivor count (T/C endpoint: mean survival time, dose: 400.0 mg/kg/injection, schedule: Q04DX002 (ip), vehicle: gum acacia): 0 of 3

Nc1ncnc2n[nH]nc12
survivor count [2]: 0 of 6

N/N=C(\N)c1ccc(NC(=O)c2ccc(C(=O)Nc3ccc(/C(N)=N/N)cc3)cc2)cc1
survivor count (T/C endpoint: mean survival time, dose: 120.0 mg/kg/injection, schedule: Q01DX Z (ip), vehicle: saline): 5 of 6
survivor count (T/C endpoint: mean survival time, dose: 240.0 mg/kg/injection, schedule: Q01DX Z (ip), vehicle: saline): 3 of 6

CCCCCC[n+]1ccc(C#N)cc1
survivor count (T/C endpoint: mean survival time, dose: 150.0 mg/kg/injection, schedule: Q01DX001 (ip), vehicle: saline): 0 of 6
survivor count (T/C endpoint: mean survival time, dose: 300.0 mg/kg/injection, schedule: Q01DX001 (ip), vehicle: saline): 0 of 6

Nc1c2ccccc2cc2cccc[n+]12
survivor count (T/C endpoint: mean survival time, dose: 37.5 mg/kg/injection, schedule: Q01DX001 (ip), vehicle: other): 0 of 6 and 1 of 6
survivor count (T/C endpoint: mean survival time, dose: 75.0 mg/kg/injection, schedule: Q01DX001 (ip), vehicle: other): 0 of 6 (2×)
survivor count (T/C endpoint: mean survival time, dose: 150.0 mg/kg/injection, schedule: Q01DX001 (ip), vehicle: other): 0 of 6 and 1 of 6
survivor count (T/C endpoint: mean survival time, dose: 300.0 mg/kg/injection, schedule: Q01DX001 (ip), vehicle: other): 0 of 6 and 1 of 6

CCN(CC)Cc1cc(O)c(CN(CC)CC)cc1O
survivor count (T/C endpoint: mean survival time, dose: 100.0 mg/kg/injection, schedule: Q01DX001 (ip), vehicle: saline with Tween-80): 1 of 3
survivor count (T/C endpoint: mean survival time, dose: 200.0 mg/kg/injection, schedule: Q01DX001 (ip), vehicle: saline with Tween-80): 1 of 3
survivor count (T/C endpoint: mean survival time, dose: 400.0 mg/kg/injection, schedule: Q01DX001 (ip), vehicle: saline with Tween-80): 0 of 3

O=[N+]([O-])c1ccc2scc3c4ccccc4nc-3c2c1
survivor count (T/C endpoint: mean survival time, dose: 35.0 mg/kg/injection, schedule: Q01DX009 (ip), vehicle: Klucel (hydroxypropylcellulose) (HPC)): 0 of 6
survivor count (T/C endpoint: mean survival time, dose: 50.0 mg/kg/injection, schedule: Q04DX003 (ip), vehicle: saline): 6 of 6
survivor count (T/C endpoint: mean survival time, dose: 55.0 mg/kg/injection, schedule: Q01DX009 (ip), vehicle: Klucel (hydroxypropylcellulose) (HPC)): 0 of 6
survivor count (T/C endpoint: mean survival time, dose: 80.0 mg/kg/injection, schedule: Q01DX009 (ip), vehicle: Klucel (hydroxypropylcellulose) (HPC)): 0 of 6
survivor count [1]: 0 of 6
survivor count [4]: 5 of 6
survivor count [2]: 0 of 6
survivor count [5]: 1 of 6
survivor count [3]: 0 of 6
survivor count [6]: 0 of 6

O=c1oc(Cl)c(Cl)c(Cl)c1Cl
survivor count (T/C endpoint: mean survival time, dose: 3.3 mg/kg/injection, schedule: Q01DX Z (ip), vehicle: methylcellulose (MC)): 6 of 6
survivor count (T/C endpoint: mean survival time, dose: 5.0 mg/kg/injection, schedule: Q01DX Z (ip), vehicle: methylcellulose (MC)): 3 of 6

O=C(NO)c1cnccn1
T/C (T/C endpoint: mean survival time, dose: 444.0 mg/kg/injection, schedule: Q01DX015 (ip), vehicle: water): 128 % of control

COC12C[C@]34CCCN3CC(O1)c1cc3c(cc1[C@@H]4[C@@H]2O)OCO3
survivor count (T/C endpoint: mean survival time, dose: 100.0 mg/kg/injection, schedule: Q01DX009 (ip), vehicle: saline): 5 of 6

OC1C2CCC(C2)C1C(O)(C(F)(F)F)C(F)(F)F (configuration not stated)
survivor count [4]: 2 of 6
survivor count [5]: 0 of 6
survivor count [6]: 0 of 6
